Laboratory results taken from article PMC9200640.
Results are given in words; binding and its absence hold for the method and conditions named. Some entries that bind do so weakly or less than the wild type.

Target: T1, bS6m (mitoribosomal small subunit protein) (mouse (endogenous in NS0)) (UniProt P58064)
T1 sequence: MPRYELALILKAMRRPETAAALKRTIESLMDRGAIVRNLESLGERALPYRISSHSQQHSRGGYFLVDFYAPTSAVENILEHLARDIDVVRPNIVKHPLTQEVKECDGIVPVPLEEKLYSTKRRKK
Assay: cryo-EM structure; pre-SSU-1 (3.2 Å), native SSU assembly intermediate from mitochondria of Trmt2b-knockout NS0 mouse cells, sucrose gradient fractions

B1: RBFA (mouse mitochondrial ribosome-binding factor A) (protein, UniProt Q6P3B9 42-350)
chain: GSKNLLKKFASKTRKKFWYEGPSLGSHLTPRPSKHEFLTKTTSKKTRKEDSIRLRVLNGLLYKSLTELLCTPQVSQEVYDLNVELSKVSVTSDFSACRVYWKTGVSAEQNKHTESVLQRSAAYMRHLLISQQTLRNVPPIVFVQDKRDLVLAEVDRLLAEADFGPPDERDDLDGLRNADAQVPHDSPEPAAHPNLCGIDHEALNKQIMEYKRKKERGLQCQSLAPPSGREQAPEPTRLLRKREKVRSRWQHRDASPRSFLLGEEDEDEDSSTEWECHAHEAEDDDDHQEEELGADRGAQRGLCGKREQG
  binding: binds
